Earlier results as cited in patent US9198957B2, “Treatment and prevention of bacterial vaginosis and Gardnerella vaginalis infections” (The Trustees of Columbia University in the City of New York, priority 2011, dated 2015).
At least one structure is not confirmed: it was looked up by name or label, or the drawing left a doubt.

Tests used:
Atopobium vaginae = conditions: reference (80); cited from earlier work
Mobiluncus morphotypes = conditions: patients with BV; clindamycin vaginal single-dose cream vs metronidazole vaginal gel; reference (81); cited from earlier work

Structure (SMILES)	Etest susceptibility concentration (range) (Atopobium vaginae)	reduction of vaginal Mobiluncus morphotypes (Mobiluncus morphotypes)
CCC[C@@H]1C[C@@H](C(=O)N[C@@H]([C@H]2O[C@H](SC)[C@H](O)[C@@H](O)[C@H]2O)[C@H](C)Cl)N(C)C1 [clindamycin]	< 0.016 µg/mL	to a greater extent than metronidazole
CO[C@H]1/C=C/O[C@@]2(C)Oc3c(C)c(O)c4c(O)c(c(/C=N/N5CCN(C)CC5)c(O)c4c3C2=O)NC(=O)/C(C)=C\C=C\[C@H](C)[C@H](O)[C@@H](C)[C@@H](O)[C@@H](C)[C@H](OC(C)=O)[C@@H]1C [rifampicin]	< 0.002 µg/mL	–
